Results on one substance are retold here after article doi:10.1101/2022.05.27.493704.

Sequences of proteins named here, by UniProt entry; tags and fusion partners are left off. Residues count along the entry.
UniProt Q96EP0, whole entry: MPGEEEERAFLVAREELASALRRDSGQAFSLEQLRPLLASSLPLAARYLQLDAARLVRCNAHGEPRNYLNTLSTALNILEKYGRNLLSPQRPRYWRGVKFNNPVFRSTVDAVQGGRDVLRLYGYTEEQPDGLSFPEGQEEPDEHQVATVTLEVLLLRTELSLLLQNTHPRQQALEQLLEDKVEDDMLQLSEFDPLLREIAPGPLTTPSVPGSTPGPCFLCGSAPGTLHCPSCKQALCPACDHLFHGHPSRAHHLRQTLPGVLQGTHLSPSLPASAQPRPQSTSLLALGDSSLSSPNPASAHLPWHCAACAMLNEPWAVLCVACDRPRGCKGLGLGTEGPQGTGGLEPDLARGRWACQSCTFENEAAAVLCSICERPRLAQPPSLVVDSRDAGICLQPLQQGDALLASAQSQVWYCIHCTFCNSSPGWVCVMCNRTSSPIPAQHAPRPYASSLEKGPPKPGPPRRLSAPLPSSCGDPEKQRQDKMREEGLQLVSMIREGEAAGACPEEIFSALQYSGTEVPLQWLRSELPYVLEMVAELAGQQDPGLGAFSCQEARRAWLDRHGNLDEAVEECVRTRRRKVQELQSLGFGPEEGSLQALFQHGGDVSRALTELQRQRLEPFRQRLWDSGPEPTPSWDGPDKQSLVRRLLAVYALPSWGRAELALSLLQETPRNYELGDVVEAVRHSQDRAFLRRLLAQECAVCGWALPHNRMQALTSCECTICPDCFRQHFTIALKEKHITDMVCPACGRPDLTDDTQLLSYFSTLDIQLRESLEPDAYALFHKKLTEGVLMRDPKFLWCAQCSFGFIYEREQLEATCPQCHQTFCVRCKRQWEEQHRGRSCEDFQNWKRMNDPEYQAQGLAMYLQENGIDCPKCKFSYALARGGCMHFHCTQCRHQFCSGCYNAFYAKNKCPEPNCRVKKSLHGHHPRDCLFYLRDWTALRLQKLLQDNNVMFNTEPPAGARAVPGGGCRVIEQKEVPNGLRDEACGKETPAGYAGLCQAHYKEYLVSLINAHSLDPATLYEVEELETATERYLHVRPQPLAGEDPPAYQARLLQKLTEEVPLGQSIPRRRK
UniProt Q96EP0, 1-475: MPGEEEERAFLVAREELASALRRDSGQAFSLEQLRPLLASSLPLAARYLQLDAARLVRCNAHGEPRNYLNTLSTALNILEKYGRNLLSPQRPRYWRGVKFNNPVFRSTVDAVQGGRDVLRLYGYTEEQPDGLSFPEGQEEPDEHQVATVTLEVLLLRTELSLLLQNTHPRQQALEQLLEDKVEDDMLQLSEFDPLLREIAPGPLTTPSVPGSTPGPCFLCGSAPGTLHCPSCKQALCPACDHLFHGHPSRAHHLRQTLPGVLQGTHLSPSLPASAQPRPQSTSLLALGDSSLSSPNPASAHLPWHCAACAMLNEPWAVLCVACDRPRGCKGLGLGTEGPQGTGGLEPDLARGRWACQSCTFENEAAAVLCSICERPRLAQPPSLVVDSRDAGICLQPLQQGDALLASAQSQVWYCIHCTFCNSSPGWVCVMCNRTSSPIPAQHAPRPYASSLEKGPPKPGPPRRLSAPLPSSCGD
UniProt Q96EP0, 1-697: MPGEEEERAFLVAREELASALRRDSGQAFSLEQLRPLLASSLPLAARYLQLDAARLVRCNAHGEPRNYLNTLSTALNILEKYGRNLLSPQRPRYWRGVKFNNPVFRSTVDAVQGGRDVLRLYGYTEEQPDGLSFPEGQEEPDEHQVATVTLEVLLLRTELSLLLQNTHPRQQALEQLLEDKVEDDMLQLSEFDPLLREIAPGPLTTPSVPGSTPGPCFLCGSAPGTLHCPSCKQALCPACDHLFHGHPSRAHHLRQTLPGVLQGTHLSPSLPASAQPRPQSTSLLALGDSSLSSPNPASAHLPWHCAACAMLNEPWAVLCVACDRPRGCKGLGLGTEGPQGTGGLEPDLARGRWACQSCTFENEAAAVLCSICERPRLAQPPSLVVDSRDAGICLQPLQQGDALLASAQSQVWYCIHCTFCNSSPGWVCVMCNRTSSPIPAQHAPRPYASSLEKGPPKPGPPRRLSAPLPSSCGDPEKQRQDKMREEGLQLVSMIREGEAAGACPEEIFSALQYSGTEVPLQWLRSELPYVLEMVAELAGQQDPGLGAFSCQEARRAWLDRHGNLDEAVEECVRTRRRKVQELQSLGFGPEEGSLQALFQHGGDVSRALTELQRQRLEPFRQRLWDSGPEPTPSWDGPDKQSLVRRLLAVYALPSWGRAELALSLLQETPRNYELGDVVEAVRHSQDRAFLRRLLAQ
UniProt Q96EP0, 697-1072: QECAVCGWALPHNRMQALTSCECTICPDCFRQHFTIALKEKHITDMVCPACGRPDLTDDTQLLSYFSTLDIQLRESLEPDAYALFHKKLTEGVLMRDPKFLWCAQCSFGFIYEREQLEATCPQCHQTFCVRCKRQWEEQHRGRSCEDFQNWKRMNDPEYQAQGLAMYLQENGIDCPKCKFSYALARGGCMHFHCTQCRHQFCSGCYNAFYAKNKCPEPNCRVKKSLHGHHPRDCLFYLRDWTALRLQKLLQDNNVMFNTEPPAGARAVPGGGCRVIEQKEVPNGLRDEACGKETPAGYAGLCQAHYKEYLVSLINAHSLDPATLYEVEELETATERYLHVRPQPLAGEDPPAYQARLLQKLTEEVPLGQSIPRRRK
UniProt Q9BXM7, 78-581: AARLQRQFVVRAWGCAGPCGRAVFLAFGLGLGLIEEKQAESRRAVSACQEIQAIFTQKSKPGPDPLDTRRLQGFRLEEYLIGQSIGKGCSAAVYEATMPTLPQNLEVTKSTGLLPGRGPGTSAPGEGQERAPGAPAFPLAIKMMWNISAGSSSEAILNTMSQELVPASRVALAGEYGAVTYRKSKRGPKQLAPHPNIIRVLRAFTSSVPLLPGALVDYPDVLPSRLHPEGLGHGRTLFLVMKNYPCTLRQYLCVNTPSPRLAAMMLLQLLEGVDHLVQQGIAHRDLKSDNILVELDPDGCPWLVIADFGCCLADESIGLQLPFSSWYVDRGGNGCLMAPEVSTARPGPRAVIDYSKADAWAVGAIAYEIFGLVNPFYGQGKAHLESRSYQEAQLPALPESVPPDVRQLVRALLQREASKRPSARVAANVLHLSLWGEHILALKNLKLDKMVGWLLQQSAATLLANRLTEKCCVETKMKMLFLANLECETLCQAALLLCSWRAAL

These are yes or no findings as the source states them, for the method shown. For some assays here: Binding seen in cells or lysates may run through a third protein. Some binding calls cover weakened binding; strength is not graded here.

The target in assay [1] is endogenous HOIP (human (endogenous in HEK293T)) (UniProt Q96EP0). The experiment in a line: SEC.
The target in assay [2] is HA-tagged C-terminal part of HOIP (aa 697-1072) (human) (UniProt Q96EP0). Nature of the assay: co-IP.
In assay [3] the target is HA-tagged HOIP 1-475 aa construct (human) (UniProt Q96EP0). The experiment in a line: co-IP.
Assay [4] deals with HA-tagged full-length HOIP (human) (UniProt Q96EP0). Nature of the assay: co-IP.
The target of assay [5] is HA-HOIP 1-697 (N-terminal part of HOIP) (human) (UniProt Q96EP0). Nature of the assay: co-IP.

As for “V5-tagged PINK1 (wildtype PINK1-V5) (from UniProt Q9BXM7 78-581)”, the binding result in assay [1] is listed as “binds”; in assay [2], “no binding”; in assay [3], “binds”; in assay [4] it was “binds”; in assay [5] it was “binds”.
